# Library screening results

The chains behind the UniProt entries cited, without tags or fusion partners.
UniProt E9BF75, entry or part of it: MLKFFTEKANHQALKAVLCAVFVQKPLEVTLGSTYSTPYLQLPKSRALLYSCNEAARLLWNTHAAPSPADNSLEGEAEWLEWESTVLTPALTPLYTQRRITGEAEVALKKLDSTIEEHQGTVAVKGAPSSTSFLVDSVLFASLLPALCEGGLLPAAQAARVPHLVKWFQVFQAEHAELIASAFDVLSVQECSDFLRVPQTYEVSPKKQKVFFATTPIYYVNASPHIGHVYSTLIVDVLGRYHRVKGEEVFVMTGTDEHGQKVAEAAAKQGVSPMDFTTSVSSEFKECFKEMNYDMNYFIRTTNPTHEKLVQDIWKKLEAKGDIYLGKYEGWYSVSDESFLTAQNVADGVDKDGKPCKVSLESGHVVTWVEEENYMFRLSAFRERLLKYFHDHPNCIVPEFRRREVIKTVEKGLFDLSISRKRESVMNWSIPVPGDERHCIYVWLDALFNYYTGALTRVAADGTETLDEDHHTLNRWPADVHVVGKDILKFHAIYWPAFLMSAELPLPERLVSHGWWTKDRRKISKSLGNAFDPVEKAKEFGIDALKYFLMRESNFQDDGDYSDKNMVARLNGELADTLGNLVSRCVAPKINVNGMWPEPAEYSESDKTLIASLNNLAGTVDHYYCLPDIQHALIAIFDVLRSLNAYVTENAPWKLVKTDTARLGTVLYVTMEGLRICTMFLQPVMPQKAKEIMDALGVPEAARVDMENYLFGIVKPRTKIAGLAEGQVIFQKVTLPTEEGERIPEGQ

Measurements from “University of Dundee, Small-Polar-MMV Screening Library” (2021), ChEMBL document CHEMBL3988442.

Results are percentages, as filed.
The record does not define 0% and 100%; most values in the screen are far below 50% and negative numbers occur (in some assays of this library far below -100).
Compounds were drawn at random from those tested, without regard to their results.

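Methionyl-tRNA synthetase (putative), Leishmania donovani (UniProt E9BF75). Primary screen of methionyl-tRNA synthetase; the read-out is not stated. The test concentration is not given. The values are filed as inhibition. Size under these conditions: about 68,000 compounds, about 24 of them at 50% or above in at least one test.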

| # | Compound | Inhibition |
|---|---|---|
| 1 | `Cc1ccnc(N2CCCC(c3noc(C(C)C)n3)C2)n1` (stereo not given) | 3.297 |
| 2 | `CCOCC(=O)N1Cc2[nH]nc(COCC3CC3)c2C1` | 4.71 |
| 3 | `O=C(NC1CCCC1)NC1CCC(C(=O)N2CCSCC2)CC1` (stereo not given) | 7.087 |
| 4 | `CC(=O)c1ccc(N2CCCC(CO)(CCOc3ccccc3)C2)nc1` (stereo not given) | 16.54 |
| 5 | `O=C1N[C@@H]2CCN(C(=O)C3CCC3)[C@@H]2C(=O)N1c1ccc(F)cc1` | -8.791 |
| 6 | `CCNCCOc1ccc(-c2cc(N)nc3[nH]ccc23)cc1` | 24.18 |
| 7 | `CN1CCN(c2ccncc2S(=O)(=O)N2CCCCC2)CC1` | 19.89 |
| 8 | `Fc1ccc(Cc2cnc(C3CCCN3)cn2)cc1` (stereo not given) | 7.91 |
| 9 | `CCOC(=O)C1CCN(Cc2c(O)ccc3oc4c(c23)CCCC4)CC1` | 9.756 |
| 10 | `CC(=O)N1CCN(CC=C(C)C)CC1` | 8.01 |
| 11 | `COCc1noc(CN2CC(=O)N(C)c3ccccc3C2=O)n1` | 15.38 |
| 12 | `Cc1csc(C(C#N)C(=O)NCc2ccccc2)n1` (stereo not given) | 12.32 |
| 13 | `CCc1nc2c(c(NCc3nc(-c4cccnc4)no3)n1)CCNCC2` | 0 |
| 14 | `Brc1cccc(-c2noc(C3COCCO3)n2)c1` (stereo not given) | 12.64 |
| 15 | `Cc1[nH]ccc1C(=O)N1CCN(C)C2(CCC(=O)N(C)CC2)C1` (stereo not given) | 7.572 |
| 16 | `Cc1noc(CSc2ccc(C(F)(F)F)cn2)n1` | 15.49 |
| 17 | `COc1c(C2CCCN2C(=O)c2c[nH]c3ncccc23)c(C)nn1C` (stereo not given) | 10.8 |
| 18 | `CCCc1n[nH]c(C2CN(C(=O)CCn3ccccc3=O)CCO2)n1` (stereo not given) | 19.37 |
| 19 | `CC(Oc1ccc(F)cc1)C(=O)N(CC(N)=O)C1CCCC1` (stereo not given) | 16.31 |
| 20 | `CN(C)C(=O)CNC(=O)c1nc(C2CC2)n(-c2ccccc2Cl)n1` | 11.86 |
| 21 | `CC(=O)N1CC[C@]2(O)CCN(Cc3nc(C)c[nH]3)C[C@@H]2C1` | 1.95 |
| 22 | `O=C(c1cc(COc2ccc3c(c2)OCO3)[nH]n1)N1CCSCC1` | 6.383 |
| 23 | `O=C(CCc1ccccc1Cl)NS(=O)(=O)c1ccc2c(c1)OCCO2` | 12.02 |
| 24 | `CC(C)CNC[C@H]1O[C@H](Cc2cc(-c3ccccn3)on2)CC[C@@H]1O` | 5.537 |
| 25 | `CC1COCCN1C(=O)c1cnccn1` (stereo not given) | 3.904 |
| 26 | `CC(NC(N)=O)C(=O)N1CCCN(Cc2nccn2C(C)C)CC1` (stereo not given) | 7.639 |
| 27 | `CCc1nc2c(s1)C(N(C)C(=O)c1csnn1)CCC2` (stereo not given) | 12.63 |
| 28 | `CCc1nc(CCn2ccnc2-c2nccn2C)no1` | 6.634 |
| 29 | `COc1ccc(CN(C)Cc2ccnc(C3CCCO3)n2)cc1` (stereo not given) | 19.06 |
| 30 | `CSCCC(=O)N1C[C@@H](C)[C@](O)(C(C)C)C1` | -14.04 |
| 31 | `Cc1nc(C)c(CNCC2CCCn3ccnc32)s1` (stereo not given) | 4.668 |
| 32 | `O=C(C1CCOC1)N1CC2(CCN(c3ccccc3)C2)C1` (stereo not given) | 15.38 |
| 33 | `CC(C)N(Cc1ccc(C(=O)O)o1)C(C)C` | 10.57 |
| 34 | `CS(=O)(=O)N1CCO[C@@H]2CN(C(=O)C3CCOC3)CC[C@@H]2C1` (stereo not given in full) | 10.91 |
| 35 | `CC(C)CNC(=O)Cn1ccc2ccccc21` | -0.303 |
| 36 | `Cc1nc(CN2CCCC(N(C)CCOCC(F)(F)F)C2)no1` (stereo not given) | 15.08 |
| 37 | `Cc1ncc(CN2CCC(O)(c3ccccc3F)CC2)cn1` | 9.006 |
| 38 | `Cc1ccc(CC(=O)Nc2ccc(CS(C)(=O)=O)c(F)c2)cc1` | 2.799 |
| 39 | `Cc1cnn(CC2CN(c3ncnc4c3CCC4)CCO2)c1` (stereo not given) | 6.964 |
| 40 | `CC(C)N1CCC2(CC1)CN(C)C(=O)C[C@H]2C(F)(F)F` | 11.59 |
| 41 | `O=C(Nc1cccc(N2CCOCC2)c1)N[C@H](CO)c1ccccc1` | 16.26 |
| 42 | `Cc1nc(COC(=O)c2cccc3c2OCCO3)cs1` | 17.78 |
| 43 | `CCNc1cc2c(nn1)CCN(C(=O)c1ccnc(N(C)C)c1)C2` | 13.27 |
| 44 | `CC(C)CN1CCC2(CCCNC2)C1=O` (stereo not given) | 16.81 |
| 45 | `O=C(c1nnn(-c2ccc(F)cc2)n1)N1CCC(O)CC1` | 4.317 |
| 46 | `O=C1CN(S(=O)(=O)c2ccc(F)cc2)CC(O)CN1CC1CC1` (stereo not given) | 13.97 |
| 47 | `COc1ccccc1CN(Cc1nc(CC(C)C)no1)C1CC1` | 16.1 |
| 48 | `OCc1ccc(OCC(F)(F)F)cc1` | 7.447 |

The last 5 entries again:

{"compound": "CC(C)CN1CCC2(CCCNC2)C1=O", "stereo": "stereo not given", "Inhibition": 16.81}
{"compound": "O=C(c1nnn(-c2ccc(F)cc2)n1)N1CCC(O)CC1", "Inhibition": 4.317}
{"compound": "O=C1CN(S(=O)(=O)c2ccc(F)cc2)CC(O)CN1CC1CC1", "stereo": "stereo not given", "Inhibition": 13.97}
{"compound": "COc1ccccc1CN(Cc1nc(CC(C)C)no1)C1CC1", "Inhibition": 16.1}
{"compound": "OCc1ccc(OCC(F)(F)F)cc1", "Inhibition": 7.447}